From patent publication US20090068202A1
These are yes or no findings as the source states them, for the method shown. Some results given as binding are weak or reduced against the parent protein; the word gives no strength.

By UniProt entry, the sequences of proteins in these tests, tags left out. Where a name states a change or a piece, a line headed by the entry shows the natural chain unless it says otherwise.
UniProt P40259: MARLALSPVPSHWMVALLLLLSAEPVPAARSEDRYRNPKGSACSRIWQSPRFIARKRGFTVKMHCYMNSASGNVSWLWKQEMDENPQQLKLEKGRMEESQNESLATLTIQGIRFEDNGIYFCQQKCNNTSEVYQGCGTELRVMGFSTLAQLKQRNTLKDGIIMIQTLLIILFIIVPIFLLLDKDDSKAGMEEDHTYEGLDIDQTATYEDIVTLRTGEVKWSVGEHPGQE

What was measured:
[1] = biological target: extracellular domain of human CD79b (huCD79becd) (human) (UniProt P40259); assay: phage selection on immobilized antigen
[2] = biological target: extracellular domain of human CD79b (huCD79becd) (human) (UniProt P40259); assay: Biacore (SPR), antigen immobilized

B1: 2F2-grafted "humanized" antibody variant 7 (hu2F2.D7) as a Fab displayed on phage (Fab, V domains shown)
VH: EVQLVESGGGLVQPGGSLRLSCAASGYTFTSYWMNWVRQAPGKGLEWVGMIDPSDSETHYNHIFKDRFTISADTSKNTAYLQMNSLRAEDTAVYYCARNLYLWGQGTLVTVSS
VL: DIQMTQSPSSLSASVGDRVTITCKSSQSLLDSDGKTYLNWYQQKPGKAPKLLIYLVSKLDSGVPSRFSGSGSGTDFTLTISSLQPEDFATYYCFQGTHFPFTFGQGTKVEIKR
[1]
  binding: binds

B2: 2F2-grafted "humanized" antibody variant 7 (hu2F2.D7), reformatted as IgG (antibody, V domains shown)
VH: B1 VH
VL: B1 VL
[2]
  binding: binds
